# From the supplement of paper PMC8728848
# This is one part of the list.
# Columns and labels:
# Test in all cases: glycan array binding signal (z-score within array); higher = stronger binding
# Settings in all cases: glycan notation: IUPAC condensed, linker removed
# GlcNAc3Prop(b1-4)GlcNAc = target: GlcNAc3Prop(b1-4)GlcNAc
# How it was run: (§1)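 Arrays were curated from the Consortium for Functional Glycomics database, 3228 in total, and kept only where the protein sequence was available. Binding is expressed as a within-array Z-score. This score was averaged across arrays of the same protein sequence at different concentrations or buffers and across linkers, and negative values can be read as non-binding.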
# [1] = target: GlcNAc6S(b1-3)Gal(b1-4)GlcNAc
# How it was run: as §1
# Kdn(a2-3)Gal(b1-3)GalNAc = target: Kdn(a2-3)Gal(b1-3)GalNAc
# How it was run: as §1
# Kdn(a2-3)Gal(b1-3)GlcNAc = target: Kdn(a2-3)Gal(b1-3)GlcNAc
# How it was run: as §1
# Kdn(a2-3)Gal(b1-4)Glc = target: Kdn(a2-3)Gal(b1-4)Glc
# How it was run: as §1
# Kdn(a2-3)Gal(b1-4)GlcNAc = target: Kdn(a2-3)Gal(b1-4)GlcNAc
# How it was run: as §1
# [2] = target: Kdn(a2-3)Gal(b1-4)[Fuc(a1-3)]GlcNAc
# How it was run: as §1
# Kdn(a2-6)Gal(b1-4)GlcNAc = target: Kdn(a2-6)Gal(b1-4)GlcNAc
# How it was run: as §1
# [3] = target: Man(a1-2)Man(a1-2)Man(a1-3)Man
# How it was run: as §1
# [4] = target: Man(a1-2)Man(a1-2)Man(a1-6)[Man(a1-3)]Man
# How it was run: as §1
# Man(a1-2)Man(a1-3)Man = target: Man(a1-2)Man(a1-3)Man
# How it was run: as §1
# [5] = target: Man(a1-2)Man(a1-3)[Man(a1-2)Man(a1-6)]Man
# How it was run: as §1
# [6] = target: Man(a1-2)Man(a1-3)[Man(a1-2)Man(a1-6)]Man(a1-6)[Man(a1-2)Man(a1-2)Man(a1-3)]Man
# How it was run: as §1
# [7] = target: Man(a1-2)Man(a1-3)[Man(a1-2)Man(a1-6)]Man(a1-6)[Man(a1-2)Man(a1-2)Man(a1-3)]Man(b1-4)GlcNAc(b1-4)GlcNAc
# How it was run: as §1
# [8] = target: Man(a1-2)Man(a1-3)[Man(a1-6)]Man(a1-6)[Man(a1-2)Man(a1-3)]Man(b1-4)GlcNAc(b1-4)GlcNAc
# How it was run: as §1
# [9] = target: Man(a1-2)Man(a1-6)[Man(a1-3)]Man(a1-6)[Man(a1-2)Man(a1-2)Man(a1-3)]Man
# How it was run: as §1
# [10] = target: Man(a1-2)Man(a1-6)[Man(a1-3)]Man(a1-6)[Man(a1-2)Man(a1-2)Man(a1-3)]Man(b1-4)GlcNAc(b1-4)GlcNAc
# How it was run: as §1
# Man(a1-3)[Man(a1-6)]Man = target: Man(a1-3)[Man(a1-6)]Man
# How it was run: as §1
# [11] = target: Man(a1-3)[Man(a1-6)]Man(a1-6)[Man(a1-2)Man(a1-3)]Man(b1-4)GlcNAc(b1-4)GlcNAc
# How it was run: as §1
# [12] = target: Man(a1-3)[Man(a1-6)]Man(a1-6)[Man(a1-3)]Man
# How it was run: as §1
# [13] = target: Man(a1-3)[Man(a1-6)]Man(a1-6)[Man(a1-3)]Man(b1-4)GlcNAc(b1-4)GlcNAc
# How it was run: as §1
# [14] = target: Man(a1-3)[Man(a1-6)]Man(b1-4)GlcNAc(b1-4)GlcNAc
# How it was run: as §1
# Man(a1-6)Man = target: Man(a1-6)Man
# How it was run: as §1
# Man(b1-4)GlcNAc = target: Man(b1-4)GlcNAc
# How it was run: as §1
# Neu5Ac(a2-3)Gal = target: Neu5Ac(a2-3)Gal
# How it was run: as §1
# [15] = target: Neu5Ac(a2-3)Gal(b1-3)GalNAc
# How it was run: as §1
# [16] = target: Neu5Ac(a2-3)Gal(b1-3)GalNAc(b1-3)Gal(a1-4)Gal(b1-4)Glc
# How it was run: as §1
# [17] = target: Neu5Ac(a2-3)Gal(b1-3)GalNAc(b1-3)Gal(b1-4)GlcNAc
# How it was run: as §1
# [18] = target: Neu5Ac(a2-3)Gal(b1-3)GalNAc(b1-4)[Neu5Ac(a2-3)]Gal(b1-4)Glc
# How it was run: as §1
# [19] = target: Neu5Ac(a2-3)Gal(b1-3)GalNAc6S
# How it was run: as §1
# [20] = target: Neu5Ac(a2-3)Gal(b1-3)GlcNAc
# How it was run: as §1
# [21] = target: Neu5Ac(a2-3)Gal(b1-3)GlcNAc(b1-3)Gal(b1-3)GlcNAc
# How it was run: as §1
# [22] = target: Neu5Ac(a2-3)Gal(b1-3)GlcNAc6S
# How it was run: as §1
# [23] = target: Neu5Ac(a2-3)Gal(b1-3)[Fuc(a1-4)]GlcNAc
# How it was run: as §1
# [24] = target: Neu5Ac(a2-3)Gal(b1-3)[Fuc(a1-4)]GlcNAc(b1-3)Gal(b1-3)[Fuc(a1-4)]GlcNAc
# How it was run: as §1
# [25] = target: Neu5Ac(a2-3)Gal(b1-3)[Fuc(a1-4)]GlcNAc(b1-3)Gal(b1-4)[Fuc(a1-3)]GlcNAc
# How it was run: as §1
binder,measurement,setting,value
"Adiponectin (Rattus norvegicus), Q8K3R4 (protein) MLLLQALLFLLILPSHEGITATEGPGALVPPPKETCAGWMAGIPGYPGHNGIPGRDGRDGTPGEKGEKGDAGVLGPKGDPGDAGMTGAEGPRGFPGTPGRKGEPGEAAYMYHSAFSVGLETRVTVPNVPIRFTKIFYNQQNHYDGSTGKFHCNIPGLYYFSYHITVYMKDVKVSLFKKDKAVLFTYDQYQEKNVDQASGSMLLHLEVGDQVWLQVYGEGDNNGLYADNVNDSTFTGFLLYHDTN",glycan array binding signal (z-score),GlcNAc3Prop(b1-4)GlcNAc,-0.901
same,glycan array binding signal (z-score),[1],-0.358
same,glycan array binding signal (z-score),Kdn(a2-3)Gal(b1-3)GalNAc,-0.322
same,glycan array binding signal (z-score),Kdn(a2-3)Gal(b1-3)GlcNAc,-0.271
same,glycan array binding signal (z-score),Kdn(a2-3)Gal(b1-4)Glc,0.244
same,glycan array binding signal (z-score),Kdn(a2-3)Gal(b1-4)GlcNAc,-0.171
same,glycan array binding signal (z-score),[2],-0.283
same,glycan array binding signal (z-score),Kdn(a2-6)Gal(b1-4)GlcNAc,0.195
same,glycan array binding signal (z-score),[3],0.004
same,glycan array binding signal (z-score),[4],1.64
same,glycan array binding signal (z-score),Man(a1-2)Man(a1-3)Man,-0.812
same,glycan array binding signal (z-score),[5],-0.568
same,glycan array binding signal (z-score),[6],-0.03
same,glycan array binding signal (z-score),[7],0.792
same,glycan array binding signal (z-score),[8],-0.235
same,glycan array binding signal (z-score),[9],-0.065
same,glycan array binding signal (z-score),[10],-0.443
same,glycan array binding signal (z-score),Man(a1-3)[Man(a1-6)]Man,-0.182
same,glycan array binding signal (z-score),[11],0.494
same,glycan array binding signal (z-score),[12],-0.779
same,glycan array binding signal (z-score),[13],-0.767
same,glycan array binding signal (z-score),[14],-0.101
same,glycan array binding signal (z-score),Man(a1-6)Man,0.14
same,glycan array binding signal (z-score),Man(b1-4)GlcNAc,0.155
same,glycan array binding signal (z-score),Neu5Ac(a2-3)Gal,0.212
same,glycan array binding signal (z-score),[15],-0.54
same,glycan array binding signal (z-score),[16],-0.894
same,glycan array binding signal (z-score),[17],-0.141
same,glycan array binding signal (z-score),[18],-1.17
same,glycan array binding signal (z-score),[19],-0.137
same,glycan array binding signal (z-score),[20],-0.478
same,glycan array binding signal (z-score),[21],-0.468
same,glycan array binding signal (z-score),[22],0.105
same,glycan array binding signal (z-score),[23],0.479
same,glycan array binding signal (z-score),[24],-1.19
same,glycan array binding signal (z-score),[25],-0.843

# Quoted from above for reference:
binder,measurement,setting,value
"Adiponectin (Rattus norvegicus), Q8K3R4 (protein) MLLLQALLFLLILPSHEGITATEGPGALVPPPKETCAGWMAGIPGYPGHNGIPGRDGRDGTPGEKGEKGDAGVLGPKGDPGDAGMTGAEGPRGFPGTPGRKGEPGEAAYMYHSAFSVGLETRVTVPNVPIRFTKIFYNQQNHYDGSTGKFHCNIPGLYYFSYHITVYMKDVKVSLFKKDKAVLFTYDQYQEKNVDQASGSMLLHLEVGDQVWLQVYGEGDNNGLYADNVNDSTFTGFLLYHDTN",glycan array binding signal (z-score),Man(b1-4)GlcNAc,0.155
same,glycan array binding signal (z-score),Neu5Ac(a2-3)Gal,0.212
same,glycan array binding signal (z-score),[15],-0.54
same,glycan array binding signal (z-score),[16],-0.894
same,glycan array binding signal (z-score),[17],-0.141
same,glycan array binding signal (z-score),[18],-1.17
